## Results of single-concentration screens

Mtb glucose medium: 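Whole-cell growth test on Mycobacterium tuberculosis, read after 3 days in glucose-containing 7H9 medium; the read-out is not stated. Concentration: 50 µM. The record gives no direction; compounds that gave an IC50 in retests scored well above the rest, so higher reads as more growth inhibition. About 69,000 compounds were tested under these conditions; 1.1% (about 760) showed 50% or more at least once.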
Mtb cholesterol medium: 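Growth of Mycobacterium tuberculosis over 4 days (cholesterol / DPPC medium with tyloxapol); the read-out is not stated. Compounds at 50 µM. The record gives no direction; compounds that gave an IC50 in retests scored well above the rest, so higher reads as more growth inhibition. Size under these conditions: about 69,000 compounds, about 370 of them at 50% or above in at least one test.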

Values are the deposited “Percent Effect”, in %. How 0% and 100% were set is not recorded. Most values in the screen are low, and negative values occur. Compounds were drawn at random from those tested, without regard to their results. Two or more numbers in one place are separate tests of the same structure; such repeats can differ widely.

Result for CCN1CC[C@]2(CN(Cc3nccs3)C[C@H]2c2ccccc2)C1=O.O=C(O)C(F)(F)F was Mtb glucose medium: -6.734%; Mtb cholesterol medium: -4.163%.
Result for CCN(CC)Cc1ccc(C(=O)N2CCCC2Cn2cc(C)cn2)o1 (stereo not given) was Mtb glucose medium: -1.362%; Mtb cholesterol medium: 3.41%.
Result for CNc1cc(C)nc(N2Cc3cnn(Cc4ccc(F)cc4)c3C2)n1 was Mtb glucose medium: 89.01%; Mtb cholesterol medium: 77.9% and 79.23%.
Result for O=C(c1ccc[nH]1)N1CCc2ccc(S(=O)(=O)N3CCOCC3)cc2C1 was Mtb glucose medium: -18.99%; Mtb cholesterol medium: -14.9%.
Result for Cl.O=C(Nc1ccccc1F)C1=NOC2(CCNCC2)C1 was Mtb glucose medium: 4.99%; Mtb cholesterol medium: -8.364%.
Result for CN(C)c1nccc(N(C)C2CCCCC2)n1 was Mtb glucose medium: 29.46%; Mtb cholesterol medium: 15.52% and 2.052%.
Result for Cc1ccsc1[C@@H]1CCN(C(=O)CCCn2cncn2)C[C@H]1O was Mtb glucose medium: 1.862% and -25.4%; Mtb cholesterol medium: -27.81%.
Result for Cc1nnc2n1CCN(C(=O)c1ccc(Cn3cccc3)cc1)C2 was Mtb glucose medium: -4.129% and -10.69%; Mtb cholesterol medium: -13.33%.
Result for Cc1ccc(F)cc1S(=O)(=O)NCc1cccnc1N(C)C was Mtb glucose medium: 6.164%; Mtb cholesterol medium: 4.475%.
Result for CC(=O)N1CCC2(CCN(Cc3ccc(Cl)c(C(F)(F)F)c3)CC2)C1 was Mtb glucose medium: 0.2518%; Mtb cholesterol medium: -4.1%.
Result for Cc1nc(CN(C)C2CCCN(c3cccnn3)C2)nc2ccccc12 (stereo not given) was Mtb glucose medium: 11.96%; Mtb cholesterol medium: -15.4%.
Result for CNc1cccc(C2CCCN(C(=O)Cc3ccccc3)C2)n1 (stereo not given) was Mtb glucose medium: 17.56%; Mtb cholesterol medium: 7.684%.
Result for Cc1cc(C(=O)NCc2ccnc(N3CCN(C)CC3)c2)sc1C was Mtb glucose medium: 10.81%; Mtb cholesterol medium: -7.64%.
Result for Cn1c(=O)[nH]c(=O)c2c1nc1n2CC(c2ccc(Cl)cc2)O1 (stereo not given) was Mtb glucose medium: -67.28% and -13.58%; Mtb cholesterol medium: -51.13%.
Result for CC(NS(N)(=O)=O)c1ccc(OCc2ccc(F)cc2)cc1 (stereo not given) was Mtb glucose medium: 23.55%; Mtb cholesterol medium: 20.86%.
Result for CCS(=O)(=O)N1CCCC(c2nccn2Cc2cccnc2)C1 (stereo not given) was Mtb glucose medium: 3.794%; Mtb cholesterol medium: -13.38%.
Result for Cc1cnc(C(=O)N2CCc3c(nc(-c4ccncc4)[nH]c3=O)C2)cn1 was Mtb glucose medium: 11.64% and -0.6249%; Mtb cholesterol medium: -4.171%.
Result for Cn1ccc2c(-c3ccc(NCCO)nn3)ccnc21 was Mtb glucose medium: -23.33%; Mtb cholesterol medium: -9.103%.
Result for O=C(O)C(F)(F)F.O=C(c1ccncc1F)N1CC2CC1(C(=O)N1CCCC1)C2 was Mtb glucose medium: -9.454%; Mtb cholesterol medium: -1.317%.
Result for Cc1nnc2ccc(N3CCN(Cc4nccn4C)CC3)nn12 was Mtb glucose medium: -9.873% and -3.343%; Mtb cholesterol medium: -15.4%.
Result for CCCn1cc(C(=O)N2CCCC(c3nccn3CCOC)C2)c(C)n1 (stereo not given) was Mtb glucose medium: -15.71% and -3.761%; Mtb cholesterol medium: -18.7%.
Result for O=C(O)C(F)(F)F.[H][C@@]12OCCN(C(=O)CCc3ccccc3)[C@@]1([H])CC[C@H]2OCCN(C)C was Mtb glucose medium: -2.429%; Mtb cholesterol medium: -2.636%.
Result for CCCNC(=O)CC1OCCc2ccsc21 (stereo not given) was Mtb glucose medium: 2.216%; Mtb cholesterol medium: -13.19%.
Result for Cc1nc(C(C)C)ncc1C(=O)N1CCc2c(nc(N(C)C)[nH]c2=O)C1 was Mtb glucose medium: -6.361%; Mtb cholesterol medium: -5.214%.
Result for CC(CNS(N)(=O)=O)c1ccc(F)c(F)c1 (stereo not given) was Mtb glucose medium: -2.425% and -3.701%; Mtb cholesterol medium: -5.986%.
Result for CCCC(NC(=O)c1ccc(OC)cc1F)c1nnn[nH]1 (stereo not given) was Mtb glucose medium: 5.936%; Mtb cholesterol medium: 10.24%.
Result for CNc1cc(N2CCCC2CNCc2cccc(C#N)c2)ncn1 (stereo not given) was Mtb glucose medium: 24.6%; Mtb cholesterol medium: 8.504%.
Result for O=C(Cn1c(=O)oc2ccccc21)N1Cc2cncnc2C1 was Mtb glucose medium: -2.228% and 7.797%; Mtb cholesterol medium: 23.19%.
Result for COCCCS(=O)(=O)N1CCN(c2cccc(O)c2)CC1 was Mtb glucose medium: 19.86%; Mtb cholesterol medium: -3.391%.
Result for CC(C)c1nc(CN2CCCN(Cc3nccn3C)CC2)no1 was Mtb glucose medium: -29.46%; Mtb cholesterol medium: -34.72%.
Result for N#CCCN(CCN1CCOCC1)Cc1ccc(F)c(Br)c1 was Mtb glucose medium: -6.635%; Mtb cholesterol medium: -13.69%.
Result for CCS(=O)(=O)CCn1ccc(NC(=O)CCc2cccc(C)c2)n1 was Mtb glucose medium: -9.238%; Mtb cholesterol medium: 8.507% and -0.9464%.
Result for CCOc1ccc(C(=O)N(C)C)cc1NC(=O)c1ccsc1 was Mtb glucose medium: 6.873%; Mtb cholesterol medium: 8.61% and -4.673%.
Result for Cc1nccn1Cc1nnc(C2CCCN(c3ncccc3F)C2)n1C (stereo not given) was Mtb glucose medium: -3.783%; Mtb cholesterol medium: -4.519%.
Result for COc1ccc(CS(=O)(=O)CC(=O)NCC2CC2)cc1F was Mtb glucose medium: 11.13% and 9.967%; Mtb cholesterol medium: -7.643%.
Result for Cc1cc(CN2CCC(O)(Cn3ccc4ncccc43)CC2)c(C)s1 was Mtb glucose medium: 23.35%; Mtb cholesterol medium: -14.88%.
Result for COCCOCC(C)NC(=O)COc1nn(C)c2nc(C)cc(C)c12 (stereo not given) was Mtb glucose medium: 6.497% and 24.53%; Mtb cholesterol medium: 7.037%.
Result for COc1ccccc1OC1CCN(C(=O)c2cccc(O)c2C)CC1 was Mtb glucose medium: 3.498%; Mtb cholesterol medium: 5.149% and 8.656%.
Result for CCc1cccc(N2CCC(NC(=O)c3ccc(=O)[nH]n3)CC2)c1 was Mtb glucose medium: -9.731%; Mtb cholesterol medium: -3.046%.
Result for CC(C)c1nccn1CCC(=O)NCC(C)(O)c1ccco1 (stereo not given) was Mtb glucose medium: 25.68%; Mtb cholesterol medium: -1.411%.
Result for Cc1nc(NCc2ccc(C)o2)cc(C2CCNCC2)n1 was Mtb glucose medium: -9.415%; Mtb cholesterol medium: 2.45%.
Result for Cc1cc(CN2CCc3nc(-c4ccncc4)nc(O)c3CC2)c(C)s1 was Mtb glucose medium: -27.72%; Mtb cholesterol medium: -12.11%.
Result for O=C(c1cc(F)ccc1O)N1CCN(C2CCOCC2)CC1 was Mtb glucose medium: 11.38%; Mtb cholesterol medium: -17.77%.
Result for COc1cccc(Cl)c1C(C(=O)O)N(C)Cc1c(C)n[nH]c1C (stereo not given) was Mtb glucose medium: -1.656%; Mtb cholesterol medium: 11.43%.

Some entries from above, unchanged:

Result for CCCNC(=O)CC1OCCc2ccsc21 (stereo not given) was Mtb glucose medium: 2.216%; Mtb cholesterol medium: -13.19%.
Result for Cc1cc(CN2CCc3nc(-c4ccncc4)nc(O)c3CC2)c(C)s1 was Mtb glucose medium: -27.72%; Mtb cholesterol medium: -12.11%.

From ChEMBL document CHEMBL3988442, “University of Dundee, Small-Polar-MMV Screening Library” (2021).